Assay results as given in patent publication US20200071361A1, “ENGINEERED ANTIMICROBIAL AMPHIPHILIC PEPTIDES AND METHODS OF USE” (priority 2017, published 2020).
For some of these results: Not every detail of the peptide structures is certain; ends, links or a residue may be inferred. For some of these results: At least one compound was matched to its structure with a doubt left. No end group written: not given here.

What was measured:
[1] = system: Pseudomonas aeruginosa isolates (n = 109); assay: Broth microdilution MIC, clinical isolate panel; type: cell-based; conditions: Pseudomonas aeruginosa (n = 109)
Procedure: Comparator antibiotics were supplied by Micromyx, and stock solutions were prepared on the first day of testing using solvents recommended by CLSI (1). Stock solutions of all compounds were made at 40× the final testing concentration and stored at −80° C. prior to testing. Information regarding compound source, catalog and lot number, testing concentrations and drug diluent for the comparators and test agent are detailed below in Table 3.
The test organisms evaluated in this study consisted of clinical isolates from the Micromyx Repository and reference isolates from the American Type Culture Collection (ATCC; Manassas, Va.). The clinical isolates were obtained from USA hospitals. Upon initial receipt at Micromyx, the organisms were sub-cultured onto an appropriate agar medium. Following incubation, colonies were harvested from these plates and cell suspensions prepared and frozen at −80° C. with a cryoprotectant. […]
MIC values were determined using a broth microdilution procedure described by CLSI (1, 3). […]
Plates were stacked 3-4 high, covered with a lid on the top plate, placed in plastic bags, and incubated at 35° C. for 16 to 20 hrs. […] The MIC was read and recorded as the lowest concentration of drug that inhibited visible growth of the organism. […]

[2] = Drug precipitation during broth dilution testing; type: physicochemical
S. aureus biofilm = assay: Disruption of mature biofilm (crystal violet, absorbance at 550 nm); type: cell-based; conditions: S. aureus mature biofilm (FIG. 14)

| Compound | % R (percent of isolates resistant, clinical breakpoints) [1] | precipitation observed during broth dilution testing ([2]; at 16 and 8 μg/mL) | precipitation observed during broth dilution testing ([2]; at 128, 64 and 32 μg/mL) | concentration able to disrupt the biofilm, compared with P. aeruginosa (S. aureus biofilm) |
| --- | --- | --- | --- | --- |
| C[C@H]1COc2c(N3CCN(C)CC3)c(F)cc3c(=O)c(C(=O)O)cn1c23 [Levofloxacin] | Twenty-one percent | – | – | – |
| RRWVRRVRRVWRRVVRVVRRWVRR-NH2 [SEQ ID NO: 1] | – | slight precipitation | Significant precipitation | lower concentration than for P. aeruginosa |
